Assay results taken from publication PMC10948360.
No constants are given. Whether binding was seen depends on the method and setting. Some binding calls cover weakened binding; strength is not graded here.

Target: T1, Full-length kinesin heavy chain (Khc FL), unlabeled (Drosophila), P17210
T1 chain: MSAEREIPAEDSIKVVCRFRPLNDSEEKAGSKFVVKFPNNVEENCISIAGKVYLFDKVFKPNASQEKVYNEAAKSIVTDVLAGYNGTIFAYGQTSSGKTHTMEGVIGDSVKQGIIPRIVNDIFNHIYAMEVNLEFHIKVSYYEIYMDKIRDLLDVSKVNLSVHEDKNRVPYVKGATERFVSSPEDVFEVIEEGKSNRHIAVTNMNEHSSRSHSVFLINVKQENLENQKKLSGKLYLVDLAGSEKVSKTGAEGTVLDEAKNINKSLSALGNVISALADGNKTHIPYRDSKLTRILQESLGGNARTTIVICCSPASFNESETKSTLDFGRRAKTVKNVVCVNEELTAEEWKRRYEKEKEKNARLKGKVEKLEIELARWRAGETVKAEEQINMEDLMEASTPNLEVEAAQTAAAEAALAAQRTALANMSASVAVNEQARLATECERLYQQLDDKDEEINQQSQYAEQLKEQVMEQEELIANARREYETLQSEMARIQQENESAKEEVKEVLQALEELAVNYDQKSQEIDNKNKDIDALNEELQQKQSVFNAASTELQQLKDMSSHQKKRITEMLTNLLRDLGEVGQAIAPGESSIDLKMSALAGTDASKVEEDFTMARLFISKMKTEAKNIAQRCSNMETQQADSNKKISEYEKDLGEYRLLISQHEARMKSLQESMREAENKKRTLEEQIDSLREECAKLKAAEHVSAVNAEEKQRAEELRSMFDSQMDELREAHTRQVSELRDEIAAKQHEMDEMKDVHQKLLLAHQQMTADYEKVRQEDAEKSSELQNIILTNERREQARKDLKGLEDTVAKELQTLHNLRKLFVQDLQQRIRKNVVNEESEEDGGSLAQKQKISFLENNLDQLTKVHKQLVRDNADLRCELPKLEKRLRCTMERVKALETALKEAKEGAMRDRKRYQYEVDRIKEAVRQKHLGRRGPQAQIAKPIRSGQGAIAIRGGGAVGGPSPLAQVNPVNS
Test: mass photometry; coexpressed, copurified Khc–Tm1 complex at 20 nM in PBS; both purified
Conditions: remark: other sources report otherwise

binding: binds
B1: Full-length kinesin heavy chain (Khc FL), unlabeled, P17210 1-975 (protein)
chain: MSAEREIPAEDSIKVVCRFRPLNDSEEKAGSKFVVKFPNNVEENCISIAGKVYLFDKVFKPNASQEKVYNEAAKSIVTDVLAGYNGTIFAYGQTSSGKTHTMEGVIGDSVKQGIIPRIVNDIFNHIYAMEVNLEFHIKVSYYEIYMDKIRDLLDVSKVNLSVHEDKNRVPYVKGATERFVSSPEDVFEVIEEGKSNRHIAVTNMNEHSSRSHSVFLINVKQENLENQKKLSGKLYLVDLAGSEKVSKTGAEGTVLDEAKNINKSLSALGNVISALADGNKTHIPYRDSKLTRILQESLGGNARTTIVICCSPASFNESETKSTLDFGRRAKTVKNVVCVNEELTAEEWKRRYEKEKEKNARLKGKVEKLEIELARWRAGETVKAEEQINMEDLMEASTPNLEVEAAQTAAAEAALAAQRTALANMSASVAVNEQARLATECERLYQQLDDKDEEINQQSQYAEQLKEQVMEQEELIANARREYETLQSEMARIQQENESAKEEVKEVLQALEELAVNYDQKSQEIDNKNKDIDALNEELQQKQSVFNAASTELQQLKDMSSHQKKRITEMLTNLLRDLGEVGQAIAPGESSIDLKMSALAGTDASKVEEDFTMARLFISKMKTEAKNIAQRCSNMETQQADSNKKISEYEKDLGEYRLLISQHEARMKSLQESMREAENKKRTLEEQIDSLREECAKLKAAEHVSAVNAEEKQRAEELRSMFDSQMDELREAHTRQVSELRDEIAAKQHEMDEMKDVHQKLLLAHQQMTADYEKVRQEDAEKSSELQNIILTNERREQARKDLKGLEDTVAKELQTLHNLRKLFVQDLQQRIRKNVVNEESEEDGGSLAQKQKISFLENNLDQLTKVHKQLVRDNADLRCELPKLEKRLRCTMERVKALETALKEAKEGAMRDRKRYQYEVDRIKEAVRQKHLGRRGPQAQIAKPIRSGQGAIAIRGGGAVGGPSPLAQVNPVNS
